Assay results as given in paper doi:10.1101/2025.04.28.651057.
No constants are given. Whether binding was seen depends on the method and setting. In cells and extracts the contact can be indirect. Some results given as binding are weak or reduced against the parent protein; the word gives no strength. For some assays here: Where a sequence is shown, tags or fusion partners need not be part of it.

Sequences of proteins named here, by UniProt entry; tags and fusion partners are left off. A change or cut given only in a name is not applied to a line headed by its entry.
UniProt Q9ESG8, whole entry: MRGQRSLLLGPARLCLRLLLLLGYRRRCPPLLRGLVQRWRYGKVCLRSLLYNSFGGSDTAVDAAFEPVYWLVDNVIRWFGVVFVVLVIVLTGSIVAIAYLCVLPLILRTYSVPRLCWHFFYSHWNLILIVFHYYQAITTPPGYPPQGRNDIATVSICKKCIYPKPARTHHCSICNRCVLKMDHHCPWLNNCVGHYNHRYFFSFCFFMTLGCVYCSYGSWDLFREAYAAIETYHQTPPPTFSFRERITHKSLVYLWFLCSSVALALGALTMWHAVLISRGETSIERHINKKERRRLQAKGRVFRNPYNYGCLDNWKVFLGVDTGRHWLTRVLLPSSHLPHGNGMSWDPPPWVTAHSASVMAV
UniProt P59267, whole entry: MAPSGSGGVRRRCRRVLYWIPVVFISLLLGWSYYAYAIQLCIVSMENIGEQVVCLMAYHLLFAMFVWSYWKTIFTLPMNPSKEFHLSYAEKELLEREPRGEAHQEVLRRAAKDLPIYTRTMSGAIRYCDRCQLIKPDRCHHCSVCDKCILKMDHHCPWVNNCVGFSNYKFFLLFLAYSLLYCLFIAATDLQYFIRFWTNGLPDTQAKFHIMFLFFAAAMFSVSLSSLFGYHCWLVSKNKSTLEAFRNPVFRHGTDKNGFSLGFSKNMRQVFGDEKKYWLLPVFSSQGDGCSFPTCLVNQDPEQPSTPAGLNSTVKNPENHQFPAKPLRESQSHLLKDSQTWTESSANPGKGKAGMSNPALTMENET
UniProt Q8VDZ4, whole entry, looked up, stated change not applied: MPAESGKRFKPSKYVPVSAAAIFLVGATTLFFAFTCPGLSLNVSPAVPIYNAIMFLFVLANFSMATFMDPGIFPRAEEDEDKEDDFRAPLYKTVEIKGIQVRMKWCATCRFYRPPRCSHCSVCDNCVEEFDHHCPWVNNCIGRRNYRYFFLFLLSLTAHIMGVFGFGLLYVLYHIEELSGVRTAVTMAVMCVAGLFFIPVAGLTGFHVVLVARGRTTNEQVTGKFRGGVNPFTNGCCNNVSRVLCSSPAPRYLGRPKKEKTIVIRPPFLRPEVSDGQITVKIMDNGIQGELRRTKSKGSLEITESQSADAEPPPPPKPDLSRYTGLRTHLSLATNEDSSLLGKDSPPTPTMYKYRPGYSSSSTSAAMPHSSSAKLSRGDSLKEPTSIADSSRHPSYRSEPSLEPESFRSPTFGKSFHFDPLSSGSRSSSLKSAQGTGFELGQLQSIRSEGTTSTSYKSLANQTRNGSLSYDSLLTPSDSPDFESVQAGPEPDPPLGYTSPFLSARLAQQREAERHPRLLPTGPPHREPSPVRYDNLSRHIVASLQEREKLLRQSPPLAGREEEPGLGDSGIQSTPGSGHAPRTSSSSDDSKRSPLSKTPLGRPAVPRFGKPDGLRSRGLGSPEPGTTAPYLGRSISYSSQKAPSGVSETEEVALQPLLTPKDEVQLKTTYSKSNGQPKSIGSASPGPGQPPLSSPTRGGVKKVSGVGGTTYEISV
UniProt Q5Y5T5, whole entry: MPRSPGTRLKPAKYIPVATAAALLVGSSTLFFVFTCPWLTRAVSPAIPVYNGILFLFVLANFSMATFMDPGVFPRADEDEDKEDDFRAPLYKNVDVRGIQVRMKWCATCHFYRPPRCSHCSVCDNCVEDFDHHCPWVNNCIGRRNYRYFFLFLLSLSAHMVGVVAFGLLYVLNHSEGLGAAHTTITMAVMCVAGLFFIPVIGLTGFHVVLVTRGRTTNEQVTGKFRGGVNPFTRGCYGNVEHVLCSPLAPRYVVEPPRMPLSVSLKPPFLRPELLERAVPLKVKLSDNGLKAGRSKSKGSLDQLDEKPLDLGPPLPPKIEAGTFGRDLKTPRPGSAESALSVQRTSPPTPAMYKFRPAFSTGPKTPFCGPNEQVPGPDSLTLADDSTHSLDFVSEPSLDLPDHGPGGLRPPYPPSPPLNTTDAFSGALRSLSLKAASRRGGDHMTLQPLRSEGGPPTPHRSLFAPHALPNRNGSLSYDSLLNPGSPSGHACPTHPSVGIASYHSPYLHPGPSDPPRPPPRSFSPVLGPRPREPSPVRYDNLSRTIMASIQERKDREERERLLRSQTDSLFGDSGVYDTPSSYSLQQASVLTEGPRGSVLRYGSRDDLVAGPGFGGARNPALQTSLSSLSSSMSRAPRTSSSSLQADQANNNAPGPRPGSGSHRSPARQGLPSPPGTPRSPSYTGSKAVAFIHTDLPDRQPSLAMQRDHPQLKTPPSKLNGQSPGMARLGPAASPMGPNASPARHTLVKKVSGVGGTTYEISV
UniProt Q7Z5G4, whole entry: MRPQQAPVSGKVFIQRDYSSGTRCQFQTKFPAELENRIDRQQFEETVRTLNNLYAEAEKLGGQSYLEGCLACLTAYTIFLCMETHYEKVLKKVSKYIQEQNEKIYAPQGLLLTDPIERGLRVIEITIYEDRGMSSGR

How the values were obtained:
Assay in all cases: co-IP
[1] = target: HA-Zdhhc16 (mouse) (mouse) (UniProt Q9ESG8)
[2] = target: T1, HA-Zdhhc19 (mouse) (mouse) (UniProt Q810M5)
T1 sequence: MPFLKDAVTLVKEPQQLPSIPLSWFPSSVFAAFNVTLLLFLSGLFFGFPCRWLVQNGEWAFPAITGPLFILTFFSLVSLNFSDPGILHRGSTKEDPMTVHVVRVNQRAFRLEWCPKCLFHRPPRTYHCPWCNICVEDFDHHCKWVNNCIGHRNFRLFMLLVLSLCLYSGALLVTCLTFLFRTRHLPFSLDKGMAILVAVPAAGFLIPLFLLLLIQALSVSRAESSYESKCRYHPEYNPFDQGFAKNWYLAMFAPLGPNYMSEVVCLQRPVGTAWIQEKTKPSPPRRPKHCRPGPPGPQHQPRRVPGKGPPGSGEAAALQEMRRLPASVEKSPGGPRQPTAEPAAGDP

[3] = target: HA-Zdhhc2 (mouse) (mouse) (UniProt P59267)
[4] = target: HA-Zdhhc5^ANAA (triple alanine mutant) (mouse) (UniProt Q8VDZ4)
[5] = target: HA-Zdhhc5^ΔC-term (Δ270-714) (mouse) (UniProt Q8VDZ4)
[6] = target: T2, HA-Zdhhc5^ΔN-term (Δ14-270) (mouse) (UniProt Q8VDZ4)
T2 sequence: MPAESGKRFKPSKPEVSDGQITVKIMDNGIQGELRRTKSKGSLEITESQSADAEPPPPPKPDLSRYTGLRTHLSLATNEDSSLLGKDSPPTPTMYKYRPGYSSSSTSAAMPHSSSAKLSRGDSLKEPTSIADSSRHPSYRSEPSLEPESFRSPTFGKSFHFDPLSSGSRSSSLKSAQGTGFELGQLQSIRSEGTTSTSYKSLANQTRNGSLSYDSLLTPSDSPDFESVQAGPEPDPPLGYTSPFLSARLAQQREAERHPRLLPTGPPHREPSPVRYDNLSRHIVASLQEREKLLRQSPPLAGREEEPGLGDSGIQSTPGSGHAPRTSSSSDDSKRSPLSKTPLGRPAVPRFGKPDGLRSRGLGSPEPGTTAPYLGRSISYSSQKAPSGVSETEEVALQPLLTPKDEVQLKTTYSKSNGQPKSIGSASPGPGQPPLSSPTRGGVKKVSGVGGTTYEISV

[7] = target: T3, HA-Zdhhc7 (mouse) (mouse) (UniProt Q91WU6)
T3 sequence: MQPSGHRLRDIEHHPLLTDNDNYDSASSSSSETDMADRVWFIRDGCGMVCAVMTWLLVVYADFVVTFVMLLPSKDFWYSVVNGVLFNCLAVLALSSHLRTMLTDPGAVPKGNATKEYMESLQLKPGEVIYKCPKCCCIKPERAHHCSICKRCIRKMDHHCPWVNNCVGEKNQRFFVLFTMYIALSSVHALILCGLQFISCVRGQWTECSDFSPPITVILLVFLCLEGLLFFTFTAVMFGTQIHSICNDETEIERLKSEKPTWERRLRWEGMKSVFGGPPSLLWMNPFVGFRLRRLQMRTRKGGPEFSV

[8] = target: HA-Zdhhc8 (mouse) (mouse) (UniProt Q5Y5T5)

- binding [1]: no binding
- binding [2]: no binding
- binding [3]: no binding
- binding [4]: no binding
- binding [5]: binds
- binding [6]: no binding
- binding [7]: no binding
- binding [8]: binds
Substance: endogenous human GOLGA7 (from UniProt Q7Z5G4 1-137)
